This passage reports survivor count and T/C results from PubChem BioAssay AID252 (DTP/NCI, 2004).

The list shows only some results of the screen, not a fair sample: it is rich in T/C values a quarter to a half above the control, in often repeated tests (any T/C) and in doses without a T/C. Other doses and runs of a compound stand elsewhere. T/C: endpoint of the treated group in % of that of the vehicle group. Some doses have a count of surviving animals in place of a T/C: the source holds a T/C of zero for them, seemingly a mark for toxic or unscored doses. Some survivor counts are full or nearly so, which does not show that the dose was tolerated: the source hardly ever lists a survival T/C far under the control, and the zero likely stands for such cases as well. Survivors were counted at the toxicity check, usually on the fifth day, unless a day is given; later deaths do not show. Schedule codes are those of the source, taken here to give the interval after Q, in days (D) or hours (H), and the number of doses after X. Some schedules carry Z or #; the key to these is not given. For survival time, the PubChem record calls one and a half times the control and up active, and a quarter to a half above the control has no call in these data; cut-offs in other NCI protocols can differ. Some entries hold several experiments; their values stand side by side, smallest first. Signs of the kind (2×) give the number of equal values in this list. Some T/C values are followed by the survivors on the day toxicity was checked, most often the fifth; without a count, all were alive then.

This assay concerns BDF1 mice, intracerebral L1210 leukemia, survival T/C. Nature of the assay: NCI In Vivo Anticancer Drug Screen. Data for tumor model L1210 Leukemia (intracerebral) in B6D2F1 (BDF1) mice. The conditions noted are these: higher T/C = longer survival. Put shortly: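 Antitumour effect is judged in mice with transplanted tumour by comparing survival of treated (T) against vehicle-dosed (C) groups as T/C.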

The mark [1] stands for this setting: T/C endpoint: median survival time, dose: 50.0 mg/kg/injection, schedule: Q01DX009 (ip), vehicle: saline.

Take `COc1cccc2c1C(=O)c1c(O)c3c(c(O)c1C2=O)C[C@@](O)(C(=O)CO)C[C@@H]3OC1CC(N)C(O)C(C)O1` (stereo partly drawn): the survivor count (T/C endpoint: mean survival time, dose: 8.0 mg/kg/injection, schedule: Q01DX005 (ip), vehicle: saline) is listed as 9 of 10. The T/C (T/C endpoint: median survival time, dose: 1.08 mg/kg/injection, schedule: Q04DX003 (ip), vehicle: water, evaluated on day 5) was 99 and 104 % of control; the T/C (T/C endpoint: median survival time, dose: 1.08 mg/kg/injection, schedule: Q04DX003 (ip), vehicle: water, evaluated on day 24) is 104 % of control; the T/C (T/C endpoint: median survival time, dose: 1.08 mg/kg/injection, schedule: Q04DX003 (ip), vehicle: water, evaluated on day 60) was 99 % of control; the T/C (T/C endpoint: median survival time, dose: 1.8 mg/kg/injection, schedule: Q04DX003 (ip), vehicle: water, evaluated on day 5) is listed as 99, 101, 104, 110 % of control; the T/C (T/C endpoint: median survival time, dose: 1.8 mg/kg/injection, schedule: Q04DX003 (ip), vehicle: water, evaluated on day 24) is 110 % of control; the T/C (T/C endpoint: median survival time, dose: 1.8 mg/kg/injection, schedule: Q04DX003 (ip), vehicle: water, evaluated on day 60) was 100 % of control. Also, the T/C is 101 and 104 % of control (T/C endpoint: median survival time, dose: 1.8 mg/kg/injection, schedule: Q04DX003 (ip), vehicle: water, evaluated on day 64); 95, 99, 101, 105 % of control (T/C endpoint: median survival time, dose: 3.0 mg/kg/injection, schedule: Q04DX003 (ip), vehicle: water, evaluated on day 5); 101 % of control (T/C endpoint: median survival time, dose: 3.0 mg/kg/injection, schedule: Q04DX003 (ip), vehicle: water, evaluated on day 24); 95 % of control (T/C endpoint: median survival time, dose: 3.0 mg/kg/injection, schedule: Q04DX003 (ip), vehicle: water, evaluated on day 60); 100 and 105 % of control (T/C endpoint: median survival time, dose: 3.0 mg/kg/injection, schedule: Q04DX003 (ip), vehicle: water, evaluated on day 64); 99 (2×), 109, 118 % of control (T/C endpoint: median survival time, dose: 5.0 mg/kg/injection, schedule: Q04DX003 (ip), vehicle: water, evaluated on day 5). Besides, the T/C reads like this: (T/C endpoint: median survival time, dose: 5.0 mg/kg/injection, schedule: Q04DX003 (ip), vehicle: water, evaluated on day 24) 118 % of control; (T/C endpoint: median survival time, dose: 5.0 mg/kg/injection, schedule: Q04DX003 (ip), vehicle: water, evaluated on day 60) 99 % of control; (T/C endpoint: median survival time, dose: 5.0 mg/kg/injection, schedule: Q04DX003 (ip), vehicle: water, evaluated on day 64) 99 and 109 % of control; (T/C endpoint: median survival time, dose: 8.4 mg/kg/injection, schedule: Q04DX003 (ip), vehicle: water, evaluated on day 5) 87, 93, 108, 115 % of control; (T/C endpoint: median survival time, dose: 8.4 mg/kg/injection, schedule: Q04DX003 (ip), vehicle: water, evaluated on day 24) 115 % of control [7 of 8 alive]; (T/C endpoint: median survival time, dose: 8.4 mg/kg/injection, schedule: Q04DX003 (ip), vehicle: water, evaluated on day 60) 87 % of control. The T/C (T/C endpoint: median survival time, dose: 8.4 mg/kg/injection, schedule: Q04DX003 (ip), vehicle: water, evaluated on day 64) is 93 and 108 % of control.
With `[N-]=[N+]=CC(=O)NCC(=O)NN`, the survivor count (T/C endpoint: mean survival time, dose: 600.0 mg/kg/injection, schedule: Q01DX Z (ip), vehicle: water) is recorded as 6 of 6.
With `CN(C)C(=O)c1ccc(NC(=O)N(CCCl)N=O)cc1`, the T/C is 129 % of control [5 of 6 alive] (T/C endpoint: mean survival time, dose: 12.0 mg/kg/injection, schedule: Q01DX001 (ip), vehicle: other) and 125 % of control (T/C endpoint: mean survival time, dose: 16.0 mg/kg/injection, schedule: Q01DX001 (ip), vehicle: other).
For `O=c1n(CC2CO2)c(=O)n(CC2CO2)c(=O)n1CC1CO1` (stereo not drawn), the T/C reads like this: (T/C endpoint: median survival time, dose: 30.0 mg/kg/injection, schedule: Q01DX009 (ip), vehicle: saline) 132 % of control; under setting [1], 132 % of control.
For the compound `CCCCCCCCCCCCCCCC(=O)Nc1ccn(C2OC(CO)C(O)C2O)c(=O)n1` (stereo not drawn), the survivor count (T/C endpoint: median survival time, dose: 50.0 mg/kg/injection, schedule: Q01DX009 (ip), vehicle: distilled water + Tween-80 + alcohol) is on record as 10 of 10; the survivor count (T/C endpoint: median survival time, dose: 100.0 mg/kg/injection, schedule: Q01DX009 (ip), vehicle: distilled water + Tween-80 + alcohol) is given as 9 of 10; the survivor count (T/C endpoint: median survival time, dose: 200.0 mg/kg/injection, schedule: Q01DX009 (ip), vehicle: distilled water + Tween-80 + alcohol) is recorded as 4 of 10.
For `O=NN(CCCl)C(=O)NC1CCC(=O)NC1=O` (stereo not drawn), the T/C (T/C endpoint: mean survival time, dose: 5.5 mg/kg/injection, schedule: Q01DX001 (ip), vehicle: other) was 136 % of control. For the setting “T/C endpoint: mean survival time, dose: 45.0 mg/kg/injection, schedule: Q01DX001 (ip), vehicle: saline with Tween-80”, the survivor count is reported as 10 of 10.
With `c1nc(SSc2ncnc3nc[nH]c23)c2[nH]cnc2n1`, the T/C runs as follows: (T/C endpoint: mean survival time, dose: 25.0 mg/kg/injection, schedule: Q04DX003 (ip), vehicle: Klucel (hydroxypropylcellulose) (HPC)) 133 % of control; (T/C endpoint: mean survival time, dose: 50.0 mg/kg/injection, schedule: Q04DX003 (ip), vehicle: Klucel (hydroxypropylcellulose) (HPC)) 146 % of control.
Consider `O=NN(CCCl)C(=O)Nc1ccc(Oc2ccc(NC(=O)N(CCCl)N=O)cc2)cc1`, for which the T/C (T/C endpoint: mean survival time, dose: 1000.0 mg/kg/injection, schedule: Q01DX001 (ip), vehicle: carboxymethylcellulose (CMC)) was 129 % of control.
Consider `O=C1C=CN(C2OC(CO)C(O)C2O)C(=O)C1` (stereo not drawn), for which the T/C is, setting by setting: (T/C endpoint: median survival time, dose: 25.0 mg/kg/injection, schedule: Q01DX009 (ip), vehicle: saline) 133 % of control; under setting [1], 131 % of control [7 of 8 alive]; (T/C endpoint: median survival time, dose: 100.0 mg/kg/injection, schedule: Q01DX009 (ip), vehicle: saline) 143 % of control; (T/C endpoint: median survival time, dose: 400.0 mg/kg/injection, schedule: Q01DX009 (ip), vehicle: saline) 146 % of control.
`O=c1[nH]c(=O)n([C@H]2CCCO2)cc1F`: the survivor count runs as follows: (T/C endpoint: median survival time, dose: 108.0 mg/kg/injection, schedule: Q01DX009 (ip), vehicle: water) 8 of 8; (T/C endpoint: median survival time, dose: 833.0 mg/kg/injection, schedule: Q04DX003 (ip), vehicle: water) 7 of 8. Besides, the T/C is 125 % of control [6 of 8 alive] (T/C endpoint: median survival time, dose: 300.0 mg/kg/injection, schedule: Q04DX003 (ip), vehicle: water) and 138 % of control (T/C endpoint: median survival time, dose: 500.0 mg/kg/injection, schedule: Q04DX003 (ip), vehicle: water).
For `COc1ccc(NC(=O)N(CCCl)N=O)cc1`, the survivor count is given as 10 of 10 (T/C endpoint: mean survival time, dose: 79.2 mg/kg/injection, schedule: Q01DX001 (ip), vehicle: carboxymethylcellulose (CMC)) and 1 of 10 (T/C endpoint: mean survival time, dose: 158.4 mg/kg/injection, schedule: Q01DX001 (ip), vehicle: carboxymethylcellulose (CMC)).
Consider `CN(N=O)C(=O)NCCCCCNC(=O)N(C)N=O`, for which the survivor count runs as follows: (T/C endpoint: mean survival time, dose: 840.0 mg/kg/injection, schedule: Q01DX001 (ip), vehicle: carboxymethylcellulose (CMC)) 5 of 10; (T/C endpoint: mean survival time, dose: 1680.0 mg/kg/injection, schedule: Q01DX001 (ip), vehicle: carboxymethylcellulose (CMC)) 0 of 10; (T/C endpoint: mean survival time, dose: 3360.0 mg/kg/injection, schedule: Q01DX001 (ip), vehicle: carboxymethylcellulose (CMC)) 0 of 10.
For `COc1ccc(NC(=O)N(C)N=O)cc1`, the survivor count (T/C endpoint: mean survival time, dose: 150.0 mg/kg/injection, schedule: Q01DX001 (ip), vehicle: carboxymethylcellulose (CMC)) was 10 of 10.
`CN(C)/N=N/c1nc[nH]c1C(N)=O`: the survivor count (T/C endpoint: mean survival time, dose: 270.0 mg/kg/injection, schedule: Q01DX Z (ip), vehicle: carboxymethylcellulose (CMC)) is reported as 10 of 10; the survivor count (T/C endpoint: mean survival time, dose: 720.0 mg/kg/injection, schedule: Q01DX001 (ip), vehicle: carboxymethylcellulose (CMC)) is listed as 4 of 10; the survivor count (T/C endpoint: mean survival time, dose: 1080.0 mg/kg/injection, schedule: Q01DX001 (ip), vehicle: carboxymethylcellulose (CMC)) is 0 of 10; the survivor count (T/C endpoint: mean survival time, dose: 1620.0 mg/kg/injection, schedule: Q01DX001 (ip), vehicle: carboxymethylcellulose (CMC)) is recorded as 3 of 10; the survivor count (T/C endpoint: median survival time, dose: 640.0 mg/kg/injection, schedule: Q01DX009 (ip), vehicle: carboxymethylcellulose (CMC)) is on record as 3 of 10; the survivor count (T/C endpoint: median survival time, dose: 800.0 mg/kg/injection, schedule: Q01DX009 (ip), vehicle: carboxymethylcellulose (CMC)) is reported as 0 of 8.
`O=c1[nH]c(=O)n(C2CC(O)C(CO)O2)cc1F` (stereo not drawn): the T/C is 126 % of control (T/C endpoint: mean survival time, dose: 55.0 mg/kg/injection, schedule: Q01DX015 (ip), vehicle: saline) and 143 % of control (T/C endpoint: mean survival time, dose: 126.0 mg/kg/injection, schedule: Q01DX015 (ip), vehicle: saline).
Turning to `CN(N=O)C(=O)NCCCNC(=O)N(C)N=O`, the T/C (T/C endpoint: mean survival time, dose: 600.0 mg/kg/injection, schedule: Q01DX001 (ip), vehicle: carboxymethylcellulose (CMC)) is 130 % of control [8 of 10 alive]. Besides, the survivor count by setting is: (T/C endpoint: mean survival time, dose: 1200.0 mg/kg/injection, schedule: Q01DX001 (ip), vehicle: carboxymethylcellulose (CMC)) 0 of 10; (T/C endpoint: mean survival time, dose: 2400.0 mg/kg/injection, schedule: Q01DX001 (ip), vehicle: carboxymethylcellulose (CMC)) 0 of 10.
